In assay [1] the target is T1, Flag-ETS1 (human) (UniProt P14921).
T1 sequence: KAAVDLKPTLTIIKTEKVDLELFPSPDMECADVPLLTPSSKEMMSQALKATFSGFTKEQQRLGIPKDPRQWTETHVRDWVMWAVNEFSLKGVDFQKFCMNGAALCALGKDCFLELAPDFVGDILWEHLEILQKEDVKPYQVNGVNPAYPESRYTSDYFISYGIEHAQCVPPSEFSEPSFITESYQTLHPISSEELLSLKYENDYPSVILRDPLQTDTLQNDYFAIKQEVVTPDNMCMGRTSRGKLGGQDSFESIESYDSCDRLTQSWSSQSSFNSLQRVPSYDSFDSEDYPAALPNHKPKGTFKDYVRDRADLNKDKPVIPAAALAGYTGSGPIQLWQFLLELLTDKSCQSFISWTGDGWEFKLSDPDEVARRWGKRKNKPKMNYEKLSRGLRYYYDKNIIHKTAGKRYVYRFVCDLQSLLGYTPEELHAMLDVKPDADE
The assay can be described thus: co-IP; cotransfected Drosophila S2 cells lysed by sonication (50 mM Tris pH 7.5, 100 mM NaCl, 2 mM EDTA, 2 mM EGTA, 1% NP40); Flag conjugated agarose beads 3 hours at 4°C; western blot. (In general: A western blot detects proteins with antibodies after separation by electrophoresis.)

Assay [2] has as its target T2, Flag-ETS2 (human) (UniProt P15036).
T2 sequence: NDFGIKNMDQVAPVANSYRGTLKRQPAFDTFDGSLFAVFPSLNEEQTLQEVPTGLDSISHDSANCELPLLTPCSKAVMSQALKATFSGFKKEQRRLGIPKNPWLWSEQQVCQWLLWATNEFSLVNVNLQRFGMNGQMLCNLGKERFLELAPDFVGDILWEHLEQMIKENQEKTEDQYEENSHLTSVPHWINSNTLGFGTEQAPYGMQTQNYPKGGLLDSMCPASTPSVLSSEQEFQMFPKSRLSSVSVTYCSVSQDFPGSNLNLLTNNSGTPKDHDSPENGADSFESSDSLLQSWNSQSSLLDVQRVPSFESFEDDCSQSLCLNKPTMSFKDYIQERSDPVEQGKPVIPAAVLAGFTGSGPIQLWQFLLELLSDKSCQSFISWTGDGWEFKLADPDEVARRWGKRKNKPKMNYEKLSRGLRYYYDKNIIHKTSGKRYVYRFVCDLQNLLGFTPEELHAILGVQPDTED
The description is as above.

No constants are given. Whether binding was seen depends on the method and setting. In cells and extracts the contact can be indirect. Binding calls can cover weak binding; strength is not graded here. Tags and fused reporters may be left off the sequences shown.

Myc-Mae (Drosophila): the binding result in assay [1] and in assay [2] was “binds” in each case.

The record behind these values is article PMC3355116.
